Data taken from PubChem BioAssay AID1347426 (Functional Genomics Laboratory (NCATS/FGL), 2020).
Among all 31,000 sequences or so, about 1,400 (4.5%) were called active.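 Rule for the calls: active = median seed-adjusted z-score above 1 or below -1; inactive = the rest.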 This is one part of the list.

Assay: Novel Modifiers of Survival Motor Neuron (SMN) Protein: Gene Identification via Genome-wide siRNA Screen;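 note: luminescence tracks full-length SMN protein made from the SMN2 reporter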
Conditions: HEK293T SMN2-luciferase reporter, siRNA knockdown, 72 h; actives lie on both sides
Procedure, shortened: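 HEK293T cells stably carrying an SMN2 promoter/splicing cassette–luciferase reporter were reverse-transfected with 1 pmol siRNA per well (druggable-genome library, 3 siRNAs per gene) and grown 72 h at 37 °C. Luminescence, normalized to negative-control siRNA and log10-transformed, was scored as MAD.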

Sequence | median seed-adjusted z-score
GAAAAGGUUUUACAGCAAATT against HDAC4 | inactive: -0.0988
GGUCAUUGACGAUUGCAUUTT against NUDT21 | inactive: 0.0851
GCUCCGCAAAUGUGGUUGATT against ZNF714 | inactive: 0
CGCUGUUAAACUUCACCUUTT against TSHZ3 | inactive: 0.301
GGAGUGUAAUAAGUGCCGATT against MLL | inactive: 0.227
GAACCUAUCAAGAUGCGAATT against GUCY1A3 | inactive: 0.187
CCGCACCAGUAAUCGGAAATT against MAST1 | inactive: -0.0897
AACUGCUACUGAUAGGCAATT against RAB3D | inactive: 0.221
GGCCUUGAUUGAGCAUGAATT against LYPLA2 | inactive: 0.28
UCGUCUUUGUCACCCGAAATT against CCL5 | inactive: 0.11
CCUCUUAAGUGUGCUGGAATT against MS4A4A | inactive: 0.296
GGGAAGAUACAAGAACUUATT against ATP6V1G3 | inactive: 0.489
CACAUGUAAUUCAUACCUATT against ZNF28 | inactive: 0.814
GCACGAAGCUUUCCCUGGATT against KRT78 | inactive: 0.306
GGCUGACACUAGAGGACUATT against DHRS9 | inactive: -0.0523
GAGCUAACAGAGGUGAUUATT against PPP2R2A | inactive: -0.596
GGAGUUCGACAGAUUCCUATT against PCAF | inactive: -0.00665
GACUUGUGAUACAAGCGUATT against RAD23B | inactive: 0.639
GGCCUUCAACGAGUUCUAUTT against MUC5B | inactive: 0.141
GGAUCGUGUCUAUGAUAUUTT against BRS3 | inactive: 0.224
CCACGGAAGUUUCAGUACATT against COL6A3 | inactive: 0.341
GAAUAGUUUGUAUAGUAUATT against MYCBP | inactive: -0.196
GAAAGACAGAUCAAGAUUUTT against HOXB7 | inactive: -0.153

Sequence | median seed-adjusted z-score
CCUUGGAAUUUAUACCGAATT against SETMAR | inactive: 0.191
CUAUCUUGGGUUUACCGUATT against CLK1 | inactive: -0.436
GCCUGAGACGGAGCAAUGATT against RABEP2 | inactive: -0.0546
CAGCUUAAGGGUAUAGUUATT against FGF13 | inactive: 0.875
CGGGAUCACCCUCAACUAATT against MXRA5 | inactive: 0.104
CCACAUCUAACAUCCGCAATT against ZNF76 | inactive: -0.0395
GGGUCCAGUUCAAGACAUATT against LYPLA2 | inactive: 0.28
GGUCGAAGAUCAAUUUACATT against HMGCR | inactive: 0.00174
GGAGUAUAUUGAGUAUGGATT against CNOT1 | active: 1.2
CCUUGCCUCUCUGACCCAUTT against EXOSC5 | inactive: 0.109
GAAGGGUGAUUCUAAUAUUTT against GPR174 | inactive: -0.324
GCCGCAUCUGCUAACCUUATT against PPP4R1 | inactive: -0.911
CCAACAACAAAACCACUUATT against NDUFA12 | inactive: -0.377
AGAGCCGGUUGAAAAGCAATT against CEBPG | inactive: -0.561
CACGAAAACUGGACAAAUUTT against CDC16 | inactive: 0.106
CCCUUGAUCUAUCUGGGAATT against LRRC32 | inactive: 0.0464
CAUCUACGAGGACUACGUATT against RGS19 | inactive: 0.295
GAUACAGUCCAGAUCCUCATT against CBFA2T2 | inactive: -0.201
CCACAGAUGUGCAUAAACATT against NFKB2 | inactive: -0.132
GGACAACCAUCUUCAAAGATT against ZKSCAN5 | inactive: -0.229
GCCAAAUGGCGACACCAGATT against GSC2 | inactive: -0.0829
GCAGUUCGAGGUCAAGUUUTT against OAS3 | inactive: 0.147
CAAAUUUACAUAGACGUAATT against ZNF195 | inactive: 0.0753

Sequence | median seed-adjusted z-score
CACUGAUUACAGAAAGAGATT against ZNF334 | inactive: 0.611
GGUGUGGUACGGAAACUCATT against PRDM12 | inactive: 0.245
GGAAAACCAUUGGAUAUAUTT against AQP4 | inactive: -0.361
CCAUGAUGCCUUAACAUGUTT against ARHGDIA | inactive: 0.627
AAAGCGCAAUUGGUGGUAATT against DYNLT1 | inactive: 0.764
CCAAGAUCCUCUUUCUGUUTT against G6PC3 | inactive: -0.13
GGACCAACCUGUAUAGGAATT against PPP1R16B | inactive: -0.892
CGAGCAGGGCUUUACGCAATT against SEMA3B | inactive: 0.000251
GCAAUGCACAGAUACUACATT against MTMR11 | inactive: -0.0244
CCCUAUGCCUACUACCUGUTT against AMPD2 | inactive: 0.214
CUUCCUCGGUGGAACACGATT against SCLY | inactive: 0.00396
GAUGUACGCGCAGUCCAAATT against MGAT4B | inactive: 0.0142
GGAAGAACCAGAGUGUGAATT against C1RL | inactive: -0.148
GAACUUUGAUAAUGGUGAUTT against FSTL1 | inactive: 0.503
GGAGUUUCCUUAUCGAAGATT against FAT3 | inactive: 0.246
GUGAAGAUGUGGUCCUGAATT against PTK2B | active: 1.71
CCUCCUACGUGAUCACAGATT against IRAK2 | inactive: -0.06
CCACUGUAUCAAACCCGUUTT against LTBP2 | inactive: 0.0496
CAACUUAUAAGUACAAGAATT against MMP20 | inactive: 0.0623
CUACUUCGAGGACAAAGAATT against PLK2 | inactive: -0.419
GGCCUUCAUUACUUGUAGATT against ZFP62 | inactive: -0.255
CCAUAUCAGUGGGCUAUUUTT against SLC22A5 | inactive: 0.349

Some values from the entries so far:
Entry of GGCUGACACUAGAGGACUATT against DHRS9 under median seed-adjusted z-score: inactive: -0.0523
Entry of GAAAGACAGAUCAAGAUUUTT against HOXB7 under median seed-adjusted z-score: inactive: -0.153
Entry of GGCCUUGAUUGAGCAUGAATT against LYPLA2 under median seed-adjusted z-score: inactive: 0.28
Entry of CUAUCUUGGGUUUACCGUATT against CLK1 under median seed-adjusted z-score: inactive: -0.436
